The other results are listed elsewhere or left out.
Assays:
Assay in all cases: log2 fold change, soluble protein after heating vs DMSO (PISA); higher = thermal stabilisation; K562 cells, 10 uM, 30 min; active = over 0.2 and 3.5 SD of the protein, either way, in both replicates (recomputed)
[1] = compound: COC1=CC=C(C=C1)CN2C=CC3=C2C=C(C=C3)C(=O)NO
How it was run: (§1)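 K562 cells at 2×10^6 cells/mL were treated with 10 μM compound for 30 min. Aliquots were heated for 3 min across 48°C-58°C, pooled, and extracted in PBS with 0.5% NP-40 at 4°C; soluble protein was the supernatant after 21,000xg for 90 min. Soluble protein was quantified by TMTpro 16plex LC-MS/MS with channel sums equalised, and reported as log2 fold change in thermal stability against DMSO controls, with values from duplicates.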

Amino acid sequences for entries named in this document (tags omitted). A change or cut given only in a name is not applied to a line headed by its entry.
UniProt Q92882: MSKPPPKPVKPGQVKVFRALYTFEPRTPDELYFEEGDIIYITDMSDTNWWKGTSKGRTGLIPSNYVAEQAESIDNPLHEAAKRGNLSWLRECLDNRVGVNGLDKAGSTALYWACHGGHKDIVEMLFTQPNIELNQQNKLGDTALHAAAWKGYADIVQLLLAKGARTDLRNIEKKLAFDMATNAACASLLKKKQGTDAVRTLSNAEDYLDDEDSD
UniProt Q9NZT2: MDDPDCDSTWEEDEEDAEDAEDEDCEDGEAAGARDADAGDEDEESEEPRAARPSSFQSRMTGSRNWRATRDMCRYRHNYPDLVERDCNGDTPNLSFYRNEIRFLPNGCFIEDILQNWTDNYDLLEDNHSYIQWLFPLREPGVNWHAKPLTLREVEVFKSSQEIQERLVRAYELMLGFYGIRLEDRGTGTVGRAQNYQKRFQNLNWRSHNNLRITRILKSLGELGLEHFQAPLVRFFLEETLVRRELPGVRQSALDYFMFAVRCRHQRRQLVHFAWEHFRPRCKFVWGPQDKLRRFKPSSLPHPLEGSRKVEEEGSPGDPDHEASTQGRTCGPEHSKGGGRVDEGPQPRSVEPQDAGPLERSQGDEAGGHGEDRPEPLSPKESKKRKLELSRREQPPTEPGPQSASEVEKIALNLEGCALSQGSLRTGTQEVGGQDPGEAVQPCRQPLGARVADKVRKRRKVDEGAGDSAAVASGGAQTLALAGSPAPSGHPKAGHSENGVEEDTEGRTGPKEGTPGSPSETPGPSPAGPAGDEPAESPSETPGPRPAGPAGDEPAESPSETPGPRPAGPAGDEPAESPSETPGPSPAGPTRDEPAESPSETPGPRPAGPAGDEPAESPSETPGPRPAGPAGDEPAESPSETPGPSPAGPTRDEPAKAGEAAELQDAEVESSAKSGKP
UniProt Q9Y5Y2: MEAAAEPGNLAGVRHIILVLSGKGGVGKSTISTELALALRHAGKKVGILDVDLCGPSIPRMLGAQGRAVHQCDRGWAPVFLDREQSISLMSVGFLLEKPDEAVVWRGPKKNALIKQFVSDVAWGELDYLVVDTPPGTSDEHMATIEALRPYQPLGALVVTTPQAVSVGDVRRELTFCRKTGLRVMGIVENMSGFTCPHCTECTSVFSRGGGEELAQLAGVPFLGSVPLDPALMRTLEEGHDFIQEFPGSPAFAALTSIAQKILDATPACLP
UniProt Q9NWU1, whole entry, looked up: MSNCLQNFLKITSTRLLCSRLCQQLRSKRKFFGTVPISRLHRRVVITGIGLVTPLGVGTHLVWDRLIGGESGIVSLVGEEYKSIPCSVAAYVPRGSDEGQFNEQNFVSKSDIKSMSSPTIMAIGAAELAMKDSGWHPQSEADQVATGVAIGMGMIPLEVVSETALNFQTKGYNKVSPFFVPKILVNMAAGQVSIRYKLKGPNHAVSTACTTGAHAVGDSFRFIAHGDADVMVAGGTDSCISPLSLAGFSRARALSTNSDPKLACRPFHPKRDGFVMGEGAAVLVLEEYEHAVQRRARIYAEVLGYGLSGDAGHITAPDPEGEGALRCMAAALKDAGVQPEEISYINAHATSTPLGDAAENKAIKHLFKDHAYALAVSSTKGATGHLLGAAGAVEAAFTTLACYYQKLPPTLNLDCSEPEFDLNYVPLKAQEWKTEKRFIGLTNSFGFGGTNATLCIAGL
UniProt Q9Y6R0: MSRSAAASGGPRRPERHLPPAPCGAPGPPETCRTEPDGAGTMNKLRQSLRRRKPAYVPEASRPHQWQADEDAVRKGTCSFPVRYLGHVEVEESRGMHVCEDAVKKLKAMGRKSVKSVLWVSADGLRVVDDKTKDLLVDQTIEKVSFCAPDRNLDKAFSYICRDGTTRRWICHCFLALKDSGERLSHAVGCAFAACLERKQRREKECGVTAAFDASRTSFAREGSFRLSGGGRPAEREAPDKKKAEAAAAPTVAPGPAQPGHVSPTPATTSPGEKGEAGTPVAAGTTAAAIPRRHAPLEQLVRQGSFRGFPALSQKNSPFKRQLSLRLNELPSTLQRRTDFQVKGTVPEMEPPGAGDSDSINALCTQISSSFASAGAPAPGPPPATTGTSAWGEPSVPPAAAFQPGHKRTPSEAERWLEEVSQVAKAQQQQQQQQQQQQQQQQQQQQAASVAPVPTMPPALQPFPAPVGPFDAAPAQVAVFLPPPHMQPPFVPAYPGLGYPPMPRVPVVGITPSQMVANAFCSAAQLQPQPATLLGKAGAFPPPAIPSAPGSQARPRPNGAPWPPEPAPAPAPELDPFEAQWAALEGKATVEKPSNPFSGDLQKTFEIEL
UniProt Q12769: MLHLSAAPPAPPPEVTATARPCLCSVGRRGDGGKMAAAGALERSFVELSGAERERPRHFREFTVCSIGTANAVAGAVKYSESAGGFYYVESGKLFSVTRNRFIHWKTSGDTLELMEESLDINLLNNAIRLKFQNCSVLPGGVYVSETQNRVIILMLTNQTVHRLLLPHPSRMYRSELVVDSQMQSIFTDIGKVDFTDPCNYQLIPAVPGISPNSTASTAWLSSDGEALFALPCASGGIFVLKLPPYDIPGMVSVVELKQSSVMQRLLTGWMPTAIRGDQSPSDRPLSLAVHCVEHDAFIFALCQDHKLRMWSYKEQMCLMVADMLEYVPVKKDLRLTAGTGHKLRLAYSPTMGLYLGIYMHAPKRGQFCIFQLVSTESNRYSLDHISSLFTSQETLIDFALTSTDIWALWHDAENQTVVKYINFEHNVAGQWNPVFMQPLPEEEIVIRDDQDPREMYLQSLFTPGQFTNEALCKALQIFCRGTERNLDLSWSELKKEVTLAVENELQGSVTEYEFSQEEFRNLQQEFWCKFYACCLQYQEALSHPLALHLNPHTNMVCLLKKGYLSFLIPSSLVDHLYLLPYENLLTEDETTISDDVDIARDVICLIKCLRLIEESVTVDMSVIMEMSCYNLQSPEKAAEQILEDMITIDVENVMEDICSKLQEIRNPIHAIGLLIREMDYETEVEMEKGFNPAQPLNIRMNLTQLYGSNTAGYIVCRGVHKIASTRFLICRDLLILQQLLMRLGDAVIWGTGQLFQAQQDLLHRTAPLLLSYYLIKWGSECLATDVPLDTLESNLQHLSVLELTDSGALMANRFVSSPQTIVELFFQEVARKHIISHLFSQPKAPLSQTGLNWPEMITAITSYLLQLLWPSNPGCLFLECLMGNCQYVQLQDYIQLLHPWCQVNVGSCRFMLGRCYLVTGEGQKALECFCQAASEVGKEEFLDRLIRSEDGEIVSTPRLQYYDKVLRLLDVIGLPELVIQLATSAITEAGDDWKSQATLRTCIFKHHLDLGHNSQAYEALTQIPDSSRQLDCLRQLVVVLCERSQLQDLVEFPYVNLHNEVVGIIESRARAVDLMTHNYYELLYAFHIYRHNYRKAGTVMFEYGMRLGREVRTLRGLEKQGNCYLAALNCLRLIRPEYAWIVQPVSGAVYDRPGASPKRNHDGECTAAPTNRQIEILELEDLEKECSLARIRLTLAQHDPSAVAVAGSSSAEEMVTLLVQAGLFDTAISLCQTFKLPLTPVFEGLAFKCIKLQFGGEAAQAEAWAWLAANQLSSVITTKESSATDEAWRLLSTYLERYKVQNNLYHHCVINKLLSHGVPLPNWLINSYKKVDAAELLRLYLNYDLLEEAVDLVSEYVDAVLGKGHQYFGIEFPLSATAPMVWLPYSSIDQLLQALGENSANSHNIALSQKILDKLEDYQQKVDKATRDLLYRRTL
UniProt Q9UKX7: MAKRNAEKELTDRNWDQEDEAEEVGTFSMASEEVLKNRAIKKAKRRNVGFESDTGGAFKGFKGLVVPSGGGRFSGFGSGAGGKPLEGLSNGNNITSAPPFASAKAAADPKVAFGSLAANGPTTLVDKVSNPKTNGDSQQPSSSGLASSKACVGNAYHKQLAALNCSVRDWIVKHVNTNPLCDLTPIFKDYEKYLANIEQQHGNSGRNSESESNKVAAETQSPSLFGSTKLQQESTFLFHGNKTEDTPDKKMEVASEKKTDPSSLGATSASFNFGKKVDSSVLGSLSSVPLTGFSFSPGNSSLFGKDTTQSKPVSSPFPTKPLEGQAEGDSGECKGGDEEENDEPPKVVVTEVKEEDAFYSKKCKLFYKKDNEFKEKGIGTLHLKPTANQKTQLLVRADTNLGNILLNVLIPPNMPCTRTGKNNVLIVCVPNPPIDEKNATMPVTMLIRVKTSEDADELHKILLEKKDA
UniProt P11940, whole entry, looked up: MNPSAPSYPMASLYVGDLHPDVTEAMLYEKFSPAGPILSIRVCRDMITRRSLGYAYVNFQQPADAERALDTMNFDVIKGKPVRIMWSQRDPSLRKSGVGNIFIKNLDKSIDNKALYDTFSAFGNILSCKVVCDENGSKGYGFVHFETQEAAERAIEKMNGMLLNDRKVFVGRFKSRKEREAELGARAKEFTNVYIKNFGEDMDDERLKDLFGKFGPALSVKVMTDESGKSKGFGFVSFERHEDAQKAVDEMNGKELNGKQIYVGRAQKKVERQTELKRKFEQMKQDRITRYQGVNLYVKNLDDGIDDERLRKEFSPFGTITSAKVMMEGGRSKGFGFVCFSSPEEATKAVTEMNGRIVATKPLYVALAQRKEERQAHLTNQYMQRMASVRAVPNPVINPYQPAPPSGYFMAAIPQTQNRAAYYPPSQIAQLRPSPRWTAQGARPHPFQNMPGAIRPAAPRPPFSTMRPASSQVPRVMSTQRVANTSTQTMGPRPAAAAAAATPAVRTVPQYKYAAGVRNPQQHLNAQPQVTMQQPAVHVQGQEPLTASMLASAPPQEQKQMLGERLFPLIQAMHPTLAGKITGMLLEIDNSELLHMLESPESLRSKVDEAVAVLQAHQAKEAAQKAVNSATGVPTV
UniProt Q8N573: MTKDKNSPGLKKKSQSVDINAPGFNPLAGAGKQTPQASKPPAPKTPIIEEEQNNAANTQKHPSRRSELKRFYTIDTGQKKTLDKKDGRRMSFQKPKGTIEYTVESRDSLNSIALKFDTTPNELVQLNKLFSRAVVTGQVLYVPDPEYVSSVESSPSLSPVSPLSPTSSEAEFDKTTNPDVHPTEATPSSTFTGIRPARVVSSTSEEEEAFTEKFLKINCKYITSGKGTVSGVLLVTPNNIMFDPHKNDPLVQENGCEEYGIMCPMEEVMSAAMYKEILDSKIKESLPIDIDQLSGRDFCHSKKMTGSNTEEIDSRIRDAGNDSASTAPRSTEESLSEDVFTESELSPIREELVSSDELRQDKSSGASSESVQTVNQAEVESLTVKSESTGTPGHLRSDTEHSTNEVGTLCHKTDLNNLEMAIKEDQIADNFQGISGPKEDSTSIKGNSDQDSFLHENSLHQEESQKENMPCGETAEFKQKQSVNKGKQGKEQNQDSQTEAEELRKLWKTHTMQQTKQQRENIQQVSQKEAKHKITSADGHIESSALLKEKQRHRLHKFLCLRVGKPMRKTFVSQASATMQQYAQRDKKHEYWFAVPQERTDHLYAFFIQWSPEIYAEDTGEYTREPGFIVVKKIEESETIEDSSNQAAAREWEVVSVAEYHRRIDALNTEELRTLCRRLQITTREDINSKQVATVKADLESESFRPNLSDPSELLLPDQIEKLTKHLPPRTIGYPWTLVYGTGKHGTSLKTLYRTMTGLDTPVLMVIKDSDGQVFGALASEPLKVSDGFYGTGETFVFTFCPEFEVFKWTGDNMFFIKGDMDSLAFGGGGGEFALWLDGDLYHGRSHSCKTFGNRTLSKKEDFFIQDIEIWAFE
UniProt O95747, whole entry, looked up: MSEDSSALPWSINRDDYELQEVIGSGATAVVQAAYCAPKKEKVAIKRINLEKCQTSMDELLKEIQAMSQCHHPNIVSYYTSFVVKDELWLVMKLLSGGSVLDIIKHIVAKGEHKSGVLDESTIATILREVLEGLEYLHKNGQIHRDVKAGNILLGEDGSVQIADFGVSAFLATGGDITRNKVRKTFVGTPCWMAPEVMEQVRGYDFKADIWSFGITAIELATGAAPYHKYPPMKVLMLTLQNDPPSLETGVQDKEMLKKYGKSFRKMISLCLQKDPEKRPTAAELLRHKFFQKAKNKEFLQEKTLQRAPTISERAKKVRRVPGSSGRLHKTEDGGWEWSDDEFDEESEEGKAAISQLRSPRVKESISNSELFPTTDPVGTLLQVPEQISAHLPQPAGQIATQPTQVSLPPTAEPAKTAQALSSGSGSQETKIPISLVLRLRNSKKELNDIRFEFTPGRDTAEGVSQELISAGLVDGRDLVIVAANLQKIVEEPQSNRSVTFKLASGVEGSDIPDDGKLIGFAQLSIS
UniProt O43809, whole entry, looked up: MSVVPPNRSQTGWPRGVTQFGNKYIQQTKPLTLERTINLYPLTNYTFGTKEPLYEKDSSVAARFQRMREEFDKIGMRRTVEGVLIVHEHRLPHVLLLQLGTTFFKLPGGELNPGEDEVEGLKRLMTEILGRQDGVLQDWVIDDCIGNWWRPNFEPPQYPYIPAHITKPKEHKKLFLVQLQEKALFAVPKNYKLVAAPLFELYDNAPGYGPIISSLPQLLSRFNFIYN
UniProt O95989: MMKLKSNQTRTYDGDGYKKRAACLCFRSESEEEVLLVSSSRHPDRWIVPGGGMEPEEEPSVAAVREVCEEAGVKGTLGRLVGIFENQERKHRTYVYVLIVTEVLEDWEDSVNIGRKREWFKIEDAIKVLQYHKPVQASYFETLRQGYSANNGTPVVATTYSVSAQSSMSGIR

filanesib = compound: CON(C)C(=O)N1N=C(c2cc(F)ccc2F)S[C@@]1(CCCN)c1ccccc1 [filanesib]
How it was run: as §1

zotarolimus = compound: CO[C@H]1C[C@@H]2CC[C@@H](C)[C@@](O)(O2)C(=O)C(=O)N2CCCC[C@H]2C(=O)O[C@H]([C@H](C)C[C@@H]2CC[C@H](n3cnnn3)[C@H](OC)C2)CC(=O)[C@H](C)/C=C(\C)[C@@H](O)[C@@H](OC)C(=O)[C@H](C)C[C@H](C)/C=C/C=C/C=C/1C [zotarolimus]
How it was run: as §1

idasanutlin = compound: COc1cc(C(=O)O)ccc1NC(=O)[C@@H]1N[C@@H](CC(C)(C)C)[C@](C#N)(c2ccc(Cl)cc2F)[C@H]1c1cccc(Cl)c1F [idasanutlin]
How it was run: as §1

alisertib = compound: COc1cc(Nc2ncc3c(n2)-c2ccc(Cl)cc2C(c2c(F)cccc2OC)=NC3)ccc1C(=O)O [alisertib]
How it was run: as §1

[2] = compound: COc1cc2nc(-c3cc(F)ccc3O)nc(N[C@@H]3CNC[C@H]3C(C)(C)O)c2cc1OC
How it was run: as §1

gefitinib = compound: COc1cc2ncnc(Nc3ccc(F)c(Cl)c3)c2cc1OCCCN1CCOCC1 [gefitinib]
How it was run: as §1

[3] = compound: COc1cccc2cc(-c3nc([C@H]4CC[C@H](C(=O)O)CC4)n4ncnc(N)c34)[nH]c12
How it was run: as §1

lapatinib = compound: CS(=O)(=O)CCNCc1ccc(-c2ccc3ncnc(Nc4ccc(OCc5cccc(F)c5)c(Cl)c4)c3c2)o1 [lapatinib]
How it was run: as §1

pictilisib = compound: CS(=O)(=O)N1CCN(Cc2cc3nc(-c4cccc5[nH]ncc45)nc(N4CCOCC4)c3s2)CC1 [pictilisib]
How it was run: as §1

[4] = compound: CS(=O)(=O)c1ccc(-c2cnc(N)c(C(=O)Nc3ccccc3)n2)cc1
How it was run: as §1

crizotinib = compound: C[C@@H](Oc1cc(-c2cnn(C3CCNCC3)c2)cnc1N)c1c(Cl)ccc(F)c1Cl [crizotinib]
How it was run: as §1

[5] = compound: C[C@@H]1COCCN1C2=NC(=NC(=C2)C3(CC3)S(=O)(=O)C)C4=C5C=CNC5=CC=C4
How it was run: as §1

[6] = compound: C[C@H](C1=CC=C(C=C1)C(=O)NC2=C3C=CNC3=NC=C2)N
How it was run: as §1

duvelisib = compound: C[C@H](Nc1ncnc2nc[nH]c12)c1cc2cccc(Cl)c2c(=O)n1-c1ccccc1 [duvelisib]
How it was run: as §1

gandotinib = compound: Cc1cc(Nc2cc(CN3CCOCC3)c3nc(C)c(Cc4ccc(Cl)cc4F)n3n2)n[nH]1 [gandotinib]
How it was run: as §1

tozasertib = compound: Cc1cc(Nc2cc(N3CCN(C)CC3)nc(Sc3ccc(NC(=O)C4CC4)cc3)n2)n[nH]1 [tozasertib]
How it was run: as §1

[7] = compound: Cc1cc(SCc2sc(-c3ccc(C(F)(F)F)cc3)nc2C)ccc1OCC(=O)O
How it was run: as §1

doramapimod = compound: Cc1ccc(-n2nc(C(C)(C)C)cc2NC(=O)Nc2ccc(OCCN3CCOCC3)c3ccccc23)cc1 [doramapimod]
How it was run: as §1

ispinesib = compound: Cc1ccc(C(=O)N(CCCN)[C@@H](c2nc3cc(Cl)ccc3c(=O)n2Cc2ccccc2)C(C)C)cc1 [ispinesib]
How it was run: as §1

Measured: log2 fold change

OSTF1 (UniProt Q92882)
inactive: [1] 0.116 | filanesib 0.048 | zotarolimus -0.031 | idasanutlin -0.071 | alisertib -0.04 | [2] 0.061 | gefitinib 0.063 | [3] -0.005 | lapatinib 0.113 | pictilisib 0.113 | [4] 0.066 | crizotinib -0.031 | [5] 0.023 | [6] 0.023 | duvelisib -0.079 | gandotinib 0.02 | tozasertib 0.023 | [7] 0.017 | doramapimod -0.023 | ispinesib 0.009

OPLAH (UniProt O14841)
inactive: [1] 0.017 | filanesib -0.006 | zotarolimus 0.019 | idasanutlin -0.041 | alisertib -0.062 | [2] 0.044 | gefitinib 0.002 | [3] 0.043 | lapatinib -0.032 | pictilisib 0.022 | [4] 0.034 | crizotinib -0.007 | [5] 0.06 | [6] -0.008 | duvelisib 0.031 | gandotinib -0.039 | tozasertib -0.023 | [7] -0.014 | doramapimod 0.021 | ispinesib 0.009

OGFR (UniProt Q9NZT2)
inactive: [1] -0.005 | filanesib 0.048 | zotarolimus 0.137 | idasanutlin -0.042 | alisertib -0.157 | [2] 0.023 | gefitinib -0.015 | [3] -0.152 | lapatinib 0 | pictilisib 0.019 | [4] 0.074 | crizotinib -0.067 | [5] 0.034 | [6] 0.19 | gandotinib -0.058 | [7] 0.133 | doramapimod 0.082 | ispinesib -0.068

NUBP2 (UniProt Q9Y5Y2)
inactive: [1] -0.002 | filanesib -0.044 | zotarolimus 0.039 | idasanutlin -0.052 | alisertib -0.159 | [2] 0.041 | gefitinib -0.012 | [3] 0.015 | lapatinib -0.053 | pictilisib -0.071 | [4] 0.013 | crizotinib -0.065 | [5] 0.029 | [6] -0.013 | duvelisib 0.048 | gandotinib 0.089 | tozasertib -0.019 | [7] 0.039 | doramapimod -0.011 | ispinesib 0.005

OXSM (UniProt Q9NWU1)
inactive: [1] 0.033 | filanesib -0.014 | zotarolimus -0.005 | idasanutlin 0.039 | alisertib -0.131 | [2] -0.041 | gefitinib -0.001 | [3] 0.025 | lapatinib 0.007 | pictilisib 0.057 | [4] 0.016 | crizotinib 0.053 | [5] 0.036 | [6] -0.07 | gandotinib -0.054 | [7] -0.002 | doramapimod -0.055 | ispinesib 0.077

NUMBL (UniProt Q9Y6R0)
inactive: [1] -0.079 | filanesib 0.128 | zotarolimus -0.012 | idasanutlin -0.061 | alisertib -0.168 | [2] 0.005 | gefitinib 0.036 | [3] -0.149 | lapatinib 0.012 | pictilisib -0.022 | [4] 0.13 | crizotinib -0.021 | [5] 0.056 | [6] 0.044 | gandotinib -0.025 | [7] 0.108 | doramapimod 0.109 | ispinesib -0.187

NUP160 (UniProt Q12769)
inactive: [1] -0.043 | filanesib -0.003 | zotarolimus 0.017 | idasanutlin 0.004 | alisertib -0.076 | [2] -0.068 | gefitinib 0.033 | [3] 0.037 | lapatinib 0.057 | pictilisib -0.021 | [4] 0.017 | crizotinib -0.014 | [5] 0.034 | [6] -0.027 | gandotinib -0.06 | [7] 0.007 | doramapimod 0.019 | ispinesib 0.044

PAAF1 (UniProt Q9BRP4)
inactive: [1] -0.013 | filanesib -0.082 | zotarolimus -0.008 | idasanutlin -0.026 | alisertib -0.062 | [2] 0.026 | gefitinib -0.002 | [3] 0.047 | lapatinib 0.027 | pictilisib 0.048 | [4] -0.003 | crizotinib -0.003 | [5] 0.078 | [6] -0.071 | gandotinib -0.035 | [7] 0.018 | doramapimod -0.022 | ispinesib 0.047

NUP50 (UniProt Q9UKX7)
inactive: [1] -0.011 | filanesib -0.046 | zotarolimus 0.016 | idasanutlin 0.014 | alisertib 0.017 | [2] -0.047 | gefitinib 0.016 | [3] 0.067 | lapatinib 0 | pictilisib -0.03 | [4] -0.031 | crizotinib 0.098 | [5] 0.031 | [6] -0.057 | duvelisib 0.013 | gandotinib 0.085 | tozasertib -0.022 | [7] -0.02 | doramapimod -0.033 | ispinesib 0.003

OGA (UniProt O60502)
inactive: [1] 0.01 | filanesib 0.046 | zotarolimus 0.004 | idasanutlin -0.027 | alisertib -0.041 | [2] 0.06 | gefitinib 0.058 | [3] 0.017 | lapatinib -0.042 | pictilisib 0.061 | [4] 0.065 | crizotinib -0.018 | [5] 0.08 | [6] -0.192 | duvelisib 0.05 | gandotinib -0.037 | tozasertib 0.015 | [7] 0.006 | doramapimod -0.005 | ispinesib 0.027

PABPC1 (UniProt P11940)
inactive: [1] -0.025 | filanesib 0.07 | zotarolimus -0.048 | idasanutlin 0.076 | alisertib -0.066 | [2] -0.008 | gefitinib -0.045 | [3] -0.105 | lapatinib 0.014 | pictilisib -0.109 | [4] -0.09 | crizotinib 0.044 | [5] -0.245 | [6] 0.082 | duvelisib -0.111 | gandotinib 0.015 | tozasertib 0.035 | [7] 0.015 | doramapimod -0.012 | ispinesib -0.112

OXA1L (UniProt Q15070)
inactive: [1] -0.023 | filanesib -0.123 | zotarolimus 0.009 | idasanutlin -0.029 | alisertib 0.003 | [2] -0.186 | gefitinib -0.004 | [3] 0.053 | lapatinib 0.013 | pictilisib 0.058 | [4] -0.042 | crizotinib -0.064 | [5] 0.004 | [6] -0.018 | gandotinib 0.012 | [7] 0.018 | doramapimod -0.01 | ispinesib -0.1

OXR1 (UniProt Q8N573)
inactive: [1] -0.018 | filanesib -0.078 | zotarolimus 0.009 | idasanutlin -0.014 | alisertib -0.059 | [2] 0.034 | gefitinib 0.003 | [3] 0.018 | lapatinib 0.011 | pictilisib 0.164 | [4] 0.02 | crizotinib -0.074 | [5] 0.014 | [6] -0.048 | gandotinib 0 | [7] -0.011 | doramapimod 0.001 | ispinesib -0.095

OXSR1 (UniProt O95747)
inactive: [1] 0.014 | filanesib -0.009 | zotarolimus -0.007 | idasanutlin -0.068 | alisertib -0.073 | [2] 0.018 | gefitinib -0.007 | [3] 0.034 | lapatinib -0.033 | pictilisib 0.028 | [4] 0.031 | crizotinib -0.127 | [5] 0.021 | [6] 0.011 | gandotinib -0.096 | [7] 0.095 | doramapimod 0.011 | ispinesib -0.055

NUP205 (UniProt Q92621)
inactive: [1] 0.015 | filanesib 0.01 | zotarolimus 0.009 | idasanutlin -0.08 | alisertib -0.014 | [2] 0.058 | gefitinib -0.011 | [3] -0.008 | lapatinib -0.03 | pictilisib -0.01 | [4] 0.001 | crizotinib -0.054 | [5] 0.002 | [6] -0.019 | gandotinib -0.17 | [7] 0.094 | doramapimod 0 | ispinesib -0.018

NUDT21 (UniProt O43809)
active: [6] -0.209
inactive: [1] -0.003 | filanesib 0.027 | zotarolimus 0.013 | idasanutlin 0.006 | alisertib -0.077 | [2] 0.102 | gefitinib -0.019 | [3] 0.031 | lapatinib -0.019 | pictilisib 0.017 | [4] -0.054 | crizotinib 0.039 | [5] -0.031 | gandotinib -0.059 | [7] 0.039 | doramapimod 0.007 | ispinesib 0.116

Copied from the listing (2 entries):
OSTF1 (UniProt Q92882)
inactive: [1] 0.116 | filanesib 0.048 | zotarolimus -0.031 | idasanutlin -0.071 | alisertib -0.04 | [2] 0.061 | gefitinib 0.063 | [3] -0.005 | lapatinib 0.113 | pictilisib 0.113 | [4] 0.066 | crizotinib -0.031 | [5] 0.023 | [6] 0.023 | duvelisib -0.079 | gandotinib 0.02 | tozasertib 0.023 | [7] 0.017 | doramapimod -0.023 | ispinesib 0.009

OPLAH (UniProt O14841)
inactive: [1] 0.017 | filanesib -0.006 | zotarolimus 0.019 | idasanutlin -0.041 | alisertib -0.062 | [2] 0.044 | gefitinib 0.002 | [3] 0.043 | lapatinib -0.032 | pictilisib 0.022 | [4] 0.034 | crizotinib -0.007 | [5] 0.06 | [6] -0.008 | duvelisib 0.031 | gandotinib -0.039 | tozasertib -0.023 | [7] -0.014 | doramapimod 0.021 | ispinesib 0.009

(list continues)

NUDT3 (UniProt O95989)
inactive: [1] -0.019 | filanesib -0.019 | zotarolimus 0.011 | idasanutlin -0.041 | alisertib -0.084 | [2] 0.025 | gefitinib -0.003 | [3] 0.062 | lapatinib -0.093 | pictilisib -0.077 | [4] 0.031 | crizotinib 0.042 | [5] 0.006 | [6] -0.104 | duvelisib 0.032 | gandotinib -0.075 | tozasertib -0.061 | [7] -0.064 | doramapimod 0.012 | ispinesib 0.015
